55 sequences from publication PMC7862700 can be followed below.

Amino acid sequences for entries named in this document (tags omitted). A change or cut given only in a name is not applied to a line headed by its entry.
UniProt Q01892: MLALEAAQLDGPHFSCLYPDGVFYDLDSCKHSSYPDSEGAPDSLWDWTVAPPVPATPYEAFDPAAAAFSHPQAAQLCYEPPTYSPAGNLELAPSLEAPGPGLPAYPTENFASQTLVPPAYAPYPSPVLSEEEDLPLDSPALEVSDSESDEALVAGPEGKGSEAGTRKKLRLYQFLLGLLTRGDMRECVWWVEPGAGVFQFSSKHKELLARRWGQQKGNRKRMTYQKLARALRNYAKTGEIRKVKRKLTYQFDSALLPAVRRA
UniProt Q99607: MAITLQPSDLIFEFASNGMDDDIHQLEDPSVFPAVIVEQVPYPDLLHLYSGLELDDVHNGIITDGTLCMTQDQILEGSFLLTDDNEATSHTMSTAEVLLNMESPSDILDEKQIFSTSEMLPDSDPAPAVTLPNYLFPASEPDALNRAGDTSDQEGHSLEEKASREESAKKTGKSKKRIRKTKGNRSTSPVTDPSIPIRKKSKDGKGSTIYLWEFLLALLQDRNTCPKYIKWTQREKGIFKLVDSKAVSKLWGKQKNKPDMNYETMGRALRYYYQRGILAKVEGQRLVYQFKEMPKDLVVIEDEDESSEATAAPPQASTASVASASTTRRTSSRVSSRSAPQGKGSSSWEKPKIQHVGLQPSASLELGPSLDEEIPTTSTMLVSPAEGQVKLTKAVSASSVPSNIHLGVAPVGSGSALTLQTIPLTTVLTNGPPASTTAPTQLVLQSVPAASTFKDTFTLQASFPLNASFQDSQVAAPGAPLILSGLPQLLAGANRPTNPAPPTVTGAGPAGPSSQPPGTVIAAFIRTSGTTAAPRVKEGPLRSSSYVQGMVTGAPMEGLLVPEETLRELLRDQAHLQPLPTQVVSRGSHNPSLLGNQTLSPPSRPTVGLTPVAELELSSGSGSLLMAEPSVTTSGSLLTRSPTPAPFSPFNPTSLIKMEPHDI

Holding throughout (assay): DAPPL (digital affinity profiling via proximity ligation, sequencing)
Holding throughout (settings): 10 mM Tris-HCl pH 7.5, 50 mM NaCl, 1 mM DTT, 4% glycerol, room temperature, 30 min; GST-TFs on glutathione beads, 16-mer random dsDNA library, 0.1% …; high values mean tight binding; double strand, one strand shown; scale: fold enrichment (6-mer frequency, TF over GST control)

The target in test [1] is SPIB (UniProt Q01892).
Test [2] deals with ELF4 (UniProt Q99607).
In test [3] the target is T1, ETV3L (UniProt Q6ZN32).
T1 sequence: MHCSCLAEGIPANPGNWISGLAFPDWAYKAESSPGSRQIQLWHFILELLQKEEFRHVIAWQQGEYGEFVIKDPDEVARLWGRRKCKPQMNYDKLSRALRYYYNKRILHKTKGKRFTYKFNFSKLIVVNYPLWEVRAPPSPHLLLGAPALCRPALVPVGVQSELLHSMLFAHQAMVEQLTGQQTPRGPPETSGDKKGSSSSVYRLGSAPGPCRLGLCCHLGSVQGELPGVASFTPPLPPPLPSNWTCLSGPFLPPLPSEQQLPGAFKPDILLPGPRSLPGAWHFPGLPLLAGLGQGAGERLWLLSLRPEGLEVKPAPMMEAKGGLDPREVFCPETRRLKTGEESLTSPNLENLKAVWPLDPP

In test [4] the target is T2, ETV2 (UniProt O00321).
T2 sequence: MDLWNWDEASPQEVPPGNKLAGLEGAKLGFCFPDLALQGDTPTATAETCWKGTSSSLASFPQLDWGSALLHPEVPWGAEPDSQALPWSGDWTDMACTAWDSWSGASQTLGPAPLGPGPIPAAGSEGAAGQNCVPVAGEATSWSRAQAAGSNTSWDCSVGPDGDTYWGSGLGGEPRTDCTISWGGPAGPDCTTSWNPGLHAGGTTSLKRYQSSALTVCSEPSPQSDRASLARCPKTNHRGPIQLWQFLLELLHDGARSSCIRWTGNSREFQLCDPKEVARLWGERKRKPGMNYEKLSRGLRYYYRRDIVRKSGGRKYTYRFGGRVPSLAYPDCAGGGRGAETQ

Test [5] has as its target T3, EHF (UniProt Q9NZC4).
T3 sequence: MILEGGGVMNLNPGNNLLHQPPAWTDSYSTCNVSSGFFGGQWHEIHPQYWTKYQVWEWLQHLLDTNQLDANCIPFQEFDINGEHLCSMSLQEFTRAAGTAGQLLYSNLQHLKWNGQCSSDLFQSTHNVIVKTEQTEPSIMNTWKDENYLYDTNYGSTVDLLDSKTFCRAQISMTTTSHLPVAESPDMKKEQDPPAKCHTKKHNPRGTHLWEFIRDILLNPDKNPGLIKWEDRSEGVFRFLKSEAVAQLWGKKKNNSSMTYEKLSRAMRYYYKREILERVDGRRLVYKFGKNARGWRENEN

The list shows a part of the results, in another mix than the full data. At the low end of the ranking, values are background and their order means little.

As to CTGTGC, the binding signal in test [1] is 1.13; in test [2] it was 1.21; in test [3], 1.13.

Take TACCTT: the binding signal in test [2] stood at 1.38; in test [3], 1.34.

With AAGGCA, the binding signal in test [1] was found to be 0.971; in test [2], 1.03; in test [4], 0.889.

For TCAATT, the binding signal turned out to be 1.18 in test [2] and 1.29 in test [3].

On to GGTATG, for which the results for the binding signal in test [5], in test [2] and in test [3] were 0.9, 0.983 and 0.899, respectively.

Turning to TCAGTT, the binding signal in test [5] came out at 0.928; in test [1] it was 0.987; in test [2], 0.982; in test [3], 1.05.

TCACGG: the figures for the binding signal in test [1], in test [2] and in test [4] were 0.945, 0.995 and 0.957, respectively.

In the case of CCTGCT, the binding signal in test [1] came to 1.59; in test [2], 1.69; in test [4] it was 1.59.

For the sequence CACATC, the binding signal in test [1] stood at 1.46; in test [2], 1.36; in test [4], 1.44.

For the sequence AGTTTC, the binding signal in test [2] was found to be 1.2; in test [3], 1.33.

Take GGACAT: the binding signal amounted to 1.11 in test [2] and 1.13 in test [3].

In the case of ACACTG, the figures for the binding signal in test [2] and in test [3] were 1.03 and 1.11, respectively.

Turning to TTTTAG, the binding signal was 1.3 in test [1], 1.24 in test [2] and 1.26 in test [3].

Consider CGCCCC, for which the binding signal came out at 1.28 in test [2] and 1.31 in test [3].

With CTCACC, the figures for the binding signal in test [2] and in test [3] were 1.28 and 1.16, respectively.

On to AGTGGC, for which the binding signal worked out at 1.4 in test [5], 1.19 in test [2] and 1.15 in test [3].

On to GTCACT, for which the results for the binding signal in test [5], in test [2] and in test [3] were 1.15, 1.09 and 1.08, respectively.

With ACCTCA, the binding signal in test [2] turned out to be 1.2; in test [3], 1.29.

As for ACGACG, the values for the binding signal in test [1], in test [2] and in test [4] were 0.974, 1.2 and 1.16, respectively.

In the case of AACGCC, the binding signal in test [5] and in test [2] was 1.15 each time.

With TGCTTG, the binding signal in test [5] came to 1.31; in test [1], 1.2; in test [2], 1.12; in test [4] it was 1.26.

For AAGGCT, the binding signal in test [1] was 1.01; in test [2], 0.997; in test [4] it was 1.15.

Take GCCGCC: the binding signal in test [1] was determined as 0.958; in test [2], 1.08; in test [4] it was 0.836.

As to ACGTTT, the results for the binding signal in test [1], in test [2] and in test [3] were 1.35, 1.14 and 1.13, respectively.

Consider ATCGCA, for which the values for the binding signal in test [1], in test [2] and in test [4] were 0.975, 1.12 and 0.977, respectively.

As for TTCTTA, the binding signal was found to be 1.28 in test [1], 1.41 in test [2] and 1.36 in test [4].

Regarding TTGCAG, the binding signal in test [5] amounted to 0.99; in test [1] it was 1.16; in test [2] it was 1.09; in test [4], 1.17.

Turning to ACCCAT, the figures for the binding signal in test [5], in test [2] and in test [3] were 1.16, 1.25 and 1.34, respectively.

AACAAG: the binding signal in test [1] worked out at 1.06; in test [2], 1.17; in test [4], 1.

As to TTGCAA, the binding signal in test [2] and in test [3] was 1.19 in each case.

Take TGCGTT: the values for the binding signal in test [1], in test [2] and in test [4] were 1.11, 1.05 and 1.16, respectively.

In the case of CTTATT, the binding signal in test [5] worked out at 1.48; in test [2], 1.43; in test [3], 1.5.

On to GCCTGA, for which the binding signal was found to be 0.98 in test [5], 1.06 in test [2] and 1.12 in test [3].

For the sequence CCTTAA, the binding signal in test [2] is 1.3; in test [3], 1.44.

Take CACACG: the binding signal in test [5] is 1.12; in test [1] it was 1.15; in test [2], 1.18; in test [4], 1.24.

CATGTA: the figures for the binding signal in test [1], in test [2] and in test [3] were 0.996, 1.14 and 1.16, respectively.

Turning to AATTAT, the figures for the binding signal in test [5] and in test [2] were 1.23 and 1.16, respectively.

Turning to ACCCTG, the binding signal in test [5] turned out to be 0.996; in test [2], 1.16.

Consider CAATTA, for which the binding signal stood at 1.07 in test [5] and 1.14 in test [2].

With GTACCT, the figures for the binding signal in test [5] and in test [2] were 1.29 and 1.23, respectively.

With CACTTT, the binding signal stood at 1.36 in test [5] and 1.3 in test [2].

With TGCATA, the values for the binding signal in test [1] and in test [2] were 1.11 and 1.2, respectively.

For TCAACT, the binding signal is 1.35 in test [5], 1.3 in test [1] and 1.27 in test [2].

On to CGCTTA, for which the binding signal in test [5] was 1.18; in test [2], 1.29.

GATAGC: the binding signal in test [5] is 1.1; in test [1], 0.984; in test [2] it was 1.06.

Turning to ATATAG, the binding signal in test [5] stood at 1.22; in test [2], 1.09.

As for AATGTT, the binding signal in test [5] came to 1.56; in test [2], 1.57.

As for TGGACA, the binding signal in test [5] is 1.05; in test [1] it was 1.08; in test [2], 1.13.

With CGGAAA, the results for the binding signal in test [1] and in test [2] were 2.22 and 1.84, respectively.

For TCTGTA, the binding signal in test [5] was 1.15; in test [2] it was 1.18.

Turning to CAATCT, the binding signal worked out at 1.17 in test [5] and 1.2 in test [2].

In the case of TCATTA, the binding signal in test [5] was found to be 1.09; in test [2], 1.15.

On to TCTAGG, for which the binding signal in test [5] was 0.979; in test [1] it was 1.11; in test [2], 1.13.

AAAACC: the binding signal in test [1] and in test [2] was 1.19 each time.

For CGGTCT, the binding signal in test [1] was 1.16; in test [2] it was 1.18.
